Test results from the supplement of paper PMC12819154, “High-throughput peptide-centric local stability assay extends protein–ligand identification to membrane proteins, tissues and bacteria” (Nature Structural & Molecular Biology, 2025).
The list shows a part of the results. Most values lie at the level of the controls, where differences are scatter.

The chains behind the UniProt entries cited, without tags or fusion partners. Where a name states a change or a piece, a line headed by the entry shows the natural chain unless it says otherwise.
UniProt P06959: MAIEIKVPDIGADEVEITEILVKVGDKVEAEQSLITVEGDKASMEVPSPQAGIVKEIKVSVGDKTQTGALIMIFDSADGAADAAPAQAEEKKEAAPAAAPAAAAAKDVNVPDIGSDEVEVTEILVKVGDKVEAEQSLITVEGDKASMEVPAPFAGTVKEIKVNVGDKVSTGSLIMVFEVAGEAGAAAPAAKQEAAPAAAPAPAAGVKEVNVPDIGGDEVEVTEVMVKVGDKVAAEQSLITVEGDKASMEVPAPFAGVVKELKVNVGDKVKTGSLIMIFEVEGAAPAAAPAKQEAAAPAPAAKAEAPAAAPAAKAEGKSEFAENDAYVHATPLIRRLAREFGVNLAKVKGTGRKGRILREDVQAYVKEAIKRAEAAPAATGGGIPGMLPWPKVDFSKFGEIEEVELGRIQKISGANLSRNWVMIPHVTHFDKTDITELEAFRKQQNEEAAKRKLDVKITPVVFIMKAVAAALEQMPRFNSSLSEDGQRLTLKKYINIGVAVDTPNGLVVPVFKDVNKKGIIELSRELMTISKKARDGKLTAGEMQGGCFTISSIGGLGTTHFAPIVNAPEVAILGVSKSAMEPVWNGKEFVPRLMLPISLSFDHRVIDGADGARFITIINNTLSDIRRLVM
UniProt P06846: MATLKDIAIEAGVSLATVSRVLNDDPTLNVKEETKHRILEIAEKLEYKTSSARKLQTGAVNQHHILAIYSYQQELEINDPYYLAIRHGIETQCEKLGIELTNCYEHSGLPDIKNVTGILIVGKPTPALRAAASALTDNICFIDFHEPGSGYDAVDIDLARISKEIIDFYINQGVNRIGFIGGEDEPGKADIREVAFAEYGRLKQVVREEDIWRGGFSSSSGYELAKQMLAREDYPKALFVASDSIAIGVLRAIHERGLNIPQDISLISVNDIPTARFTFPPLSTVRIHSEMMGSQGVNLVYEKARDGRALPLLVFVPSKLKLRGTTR
UniProt P00960: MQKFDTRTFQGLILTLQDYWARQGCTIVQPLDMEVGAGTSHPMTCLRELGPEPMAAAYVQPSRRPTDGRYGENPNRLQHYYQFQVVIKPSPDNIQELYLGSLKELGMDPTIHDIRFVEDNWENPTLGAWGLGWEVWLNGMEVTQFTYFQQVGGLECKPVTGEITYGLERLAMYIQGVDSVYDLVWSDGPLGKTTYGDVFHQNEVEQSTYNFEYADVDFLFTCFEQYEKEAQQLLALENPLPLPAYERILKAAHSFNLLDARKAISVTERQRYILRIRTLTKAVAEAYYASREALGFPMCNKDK
UniProt P06134: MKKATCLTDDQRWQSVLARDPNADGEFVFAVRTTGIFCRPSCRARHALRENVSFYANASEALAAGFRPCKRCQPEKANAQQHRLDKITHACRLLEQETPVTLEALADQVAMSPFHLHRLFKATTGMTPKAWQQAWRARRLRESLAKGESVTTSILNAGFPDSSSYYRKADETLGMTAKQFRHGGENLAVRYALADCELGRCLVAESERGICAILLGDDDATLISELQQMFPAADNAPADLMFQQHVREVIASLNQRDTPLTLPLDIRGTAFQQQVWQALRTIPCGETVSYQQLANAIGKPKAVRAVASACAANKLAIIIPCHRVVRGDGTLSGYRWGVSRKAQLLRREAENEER
UniProt P05707: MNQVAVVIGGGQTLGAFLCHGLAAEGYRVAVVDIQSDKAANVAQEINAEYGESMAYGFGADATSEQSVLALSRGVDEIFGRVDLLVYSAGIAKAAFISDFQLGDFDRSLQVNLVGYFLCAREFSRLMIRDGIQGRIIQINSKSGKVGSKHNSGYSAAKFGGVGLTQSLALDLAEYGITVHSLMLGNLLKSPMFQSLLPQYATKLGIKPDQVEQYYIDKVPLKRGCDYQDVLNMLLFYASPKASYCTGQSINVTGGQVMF
UniProt P07013: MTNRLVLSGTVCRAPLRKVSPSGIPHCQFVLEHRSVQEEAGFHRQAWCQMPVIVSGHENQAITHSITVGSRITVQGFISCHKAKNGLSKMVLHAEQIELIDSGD
UniProt P04995: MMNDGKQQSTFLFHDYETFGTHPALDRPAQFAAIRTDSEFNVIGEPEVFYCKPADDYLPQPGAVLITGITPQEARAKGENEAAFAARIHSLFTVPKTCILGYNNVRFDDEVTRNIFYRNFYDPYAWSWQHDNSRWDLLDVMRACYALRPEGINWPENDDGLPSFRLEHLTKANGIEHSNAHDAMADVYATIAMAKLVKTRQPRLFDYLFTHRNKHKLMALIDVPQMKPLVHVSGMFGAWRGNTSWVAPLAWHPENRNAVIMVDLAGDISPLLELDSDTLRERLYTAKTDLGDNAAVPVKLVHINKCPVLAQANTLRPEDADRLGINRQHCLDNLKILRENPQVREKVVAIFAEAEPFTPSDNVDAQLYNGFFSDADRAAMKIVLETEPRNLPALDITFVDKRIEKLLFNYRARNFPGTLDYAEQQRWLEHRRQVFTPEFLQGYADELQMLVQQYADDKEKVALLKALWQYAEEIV
UniProt P08373: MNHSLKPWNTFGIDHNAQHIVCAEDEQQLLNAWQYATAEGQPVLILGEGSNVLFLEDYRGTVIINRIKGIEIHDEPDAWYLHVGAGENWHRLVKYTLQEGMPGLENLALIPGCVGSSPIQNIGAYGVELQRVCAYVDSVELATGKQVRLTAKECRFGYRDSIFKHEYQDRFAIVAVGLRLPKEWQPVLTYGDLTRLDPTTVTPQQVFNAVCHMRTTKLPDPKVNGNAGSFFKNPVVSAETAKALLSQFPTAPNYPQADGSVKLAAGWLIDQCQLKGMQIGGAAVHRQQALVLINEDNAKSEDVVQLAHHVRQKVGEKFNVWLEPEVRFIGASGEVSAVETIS
UniProt P07118: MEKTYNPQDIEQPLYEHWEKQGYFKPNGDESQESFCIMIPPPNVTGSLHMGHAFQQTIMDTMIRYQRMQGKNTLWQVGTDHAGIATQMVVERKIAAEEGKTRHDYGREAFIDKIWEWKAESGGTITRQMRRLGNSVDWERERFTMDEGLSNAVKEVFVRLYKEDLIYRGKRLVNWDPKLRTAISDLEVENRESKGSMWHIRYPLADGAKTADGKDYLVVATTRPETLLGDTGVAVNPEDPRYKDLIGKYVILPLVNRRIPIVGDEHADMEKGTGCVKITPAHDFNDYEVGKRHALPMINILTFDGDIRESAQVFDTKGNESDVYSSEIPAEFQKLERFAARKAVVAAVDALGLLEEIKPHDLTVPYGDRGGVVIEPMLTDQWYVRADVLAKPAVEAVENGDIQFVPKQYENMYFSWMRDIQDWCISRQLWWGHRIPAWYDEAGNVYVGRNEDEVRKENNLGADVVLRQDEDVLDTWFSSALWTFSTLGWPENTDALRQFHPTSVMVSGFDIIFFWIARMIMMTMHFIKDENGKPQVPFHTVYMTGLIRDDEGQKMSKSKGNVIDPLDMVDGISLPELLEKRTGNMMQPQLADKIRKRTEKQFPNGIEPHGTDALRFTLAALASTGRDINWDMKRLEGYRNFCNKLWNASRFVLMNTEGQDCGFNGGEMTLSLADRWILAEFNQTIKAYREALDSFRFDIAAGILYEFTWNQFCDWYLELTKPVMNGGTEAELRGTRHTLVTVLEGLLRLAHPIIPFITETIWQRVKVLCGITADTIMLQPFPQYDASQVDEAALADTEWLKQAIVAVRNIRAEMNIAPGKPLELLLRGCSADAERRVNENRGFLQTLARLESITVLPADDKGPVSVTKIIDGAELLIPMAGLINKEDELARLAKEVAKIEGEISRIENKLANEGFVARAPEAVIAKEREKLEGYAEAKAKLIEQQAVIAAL
UniProt P06710: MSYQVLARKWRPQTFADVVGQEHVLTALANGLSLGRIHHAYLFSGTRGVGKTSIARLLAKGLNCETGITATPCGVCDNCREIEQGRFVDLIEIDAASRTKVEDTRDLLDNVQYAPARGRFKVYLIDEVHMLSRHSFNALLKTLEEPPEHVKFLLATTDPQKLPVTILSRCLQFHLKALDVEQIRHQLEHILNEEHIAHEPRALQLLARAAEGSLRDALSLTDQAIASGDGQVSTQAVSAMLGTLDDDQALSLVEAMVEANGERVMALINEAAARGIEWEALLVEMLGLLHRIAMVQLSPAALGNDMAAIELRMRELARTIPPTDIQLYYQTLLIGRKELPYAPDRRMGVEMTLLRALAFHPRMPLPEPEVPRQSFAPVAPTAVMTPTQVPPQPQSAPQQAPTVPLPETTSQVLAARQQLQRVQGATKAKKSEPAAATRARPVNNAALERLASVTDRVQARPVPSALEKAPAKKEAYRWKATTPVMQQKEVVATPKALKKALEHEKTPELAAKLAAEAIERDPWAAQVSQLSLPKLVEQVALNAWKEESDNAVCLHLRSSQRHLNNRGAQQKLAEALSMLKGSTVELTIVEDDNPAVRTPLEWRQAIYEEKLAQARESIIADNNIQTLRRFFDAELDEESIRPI
UniProt P02929: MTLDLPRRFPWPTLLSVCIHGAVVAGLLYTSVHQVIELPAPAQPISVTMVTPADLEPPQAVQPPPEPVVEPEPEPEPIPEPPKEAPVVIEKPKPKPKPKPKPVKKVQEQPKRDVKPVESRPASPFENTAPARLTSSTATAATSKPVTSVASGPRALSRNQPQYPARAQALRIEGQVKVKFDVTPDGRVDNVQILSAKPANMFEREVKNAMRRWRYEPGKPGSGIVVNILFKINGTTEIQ
UniProt P00562: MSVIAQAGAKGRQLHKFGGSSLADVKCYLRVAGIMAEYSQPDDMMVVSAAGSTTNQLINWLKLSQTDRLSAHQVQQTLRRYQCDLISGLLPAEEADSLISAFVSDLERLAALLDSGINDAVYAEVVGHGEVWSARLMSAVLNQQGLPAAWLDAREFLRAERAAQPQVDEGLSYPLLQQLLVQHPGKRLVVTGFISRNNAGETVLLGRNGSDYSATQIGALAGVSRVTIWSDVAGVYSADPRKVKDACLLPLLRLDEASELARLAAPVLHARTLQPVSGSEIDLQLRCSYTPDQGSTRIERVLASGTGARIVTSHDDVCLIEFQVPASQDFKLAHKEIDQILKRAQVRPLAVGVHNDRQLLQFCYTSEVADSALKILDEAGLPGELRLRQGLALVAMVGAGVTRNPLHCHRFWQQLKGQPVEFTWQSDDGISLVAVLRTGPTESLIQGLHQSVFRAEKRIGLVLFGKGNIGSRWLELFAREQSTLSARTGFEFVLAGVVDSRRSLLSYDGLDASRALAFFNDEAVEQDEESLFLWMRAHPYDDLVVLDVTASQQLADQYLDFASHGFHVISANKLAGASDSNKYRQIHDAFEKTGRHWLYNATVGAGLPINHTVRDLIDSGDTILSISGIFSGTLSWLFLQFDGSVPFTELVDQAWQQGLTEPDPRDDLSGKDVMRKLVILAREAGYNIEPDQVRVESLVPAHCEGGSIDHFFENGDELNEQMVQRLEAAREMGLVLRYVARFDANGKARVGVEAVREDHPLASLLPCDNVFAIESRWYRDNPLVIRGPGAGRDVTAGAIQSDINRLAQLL
UniProt P07604: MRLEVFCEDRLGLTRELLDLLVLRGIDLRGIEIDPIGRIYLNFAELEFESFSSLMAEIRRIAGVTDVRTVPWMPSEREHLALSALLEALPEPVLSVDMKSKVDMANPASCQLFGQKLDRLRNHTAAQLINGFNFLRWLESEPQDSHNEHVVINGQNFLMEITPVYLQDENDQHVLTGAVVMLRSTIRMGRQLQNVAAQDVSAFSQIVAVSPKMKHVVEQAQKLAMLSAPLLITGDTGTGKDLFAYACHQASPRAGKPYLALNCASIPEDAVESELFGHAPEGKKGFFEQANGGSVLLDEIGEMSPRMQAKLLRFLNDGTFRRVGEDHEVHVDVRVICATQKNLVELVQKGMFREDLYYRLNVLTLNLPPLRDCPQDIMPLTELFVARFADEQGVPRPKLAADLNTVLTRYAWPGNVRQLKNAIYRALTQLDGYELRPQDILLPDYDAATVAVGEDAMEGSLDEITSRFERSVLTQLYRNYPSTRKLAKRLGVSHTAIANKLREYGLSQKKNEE
UniProt P09147: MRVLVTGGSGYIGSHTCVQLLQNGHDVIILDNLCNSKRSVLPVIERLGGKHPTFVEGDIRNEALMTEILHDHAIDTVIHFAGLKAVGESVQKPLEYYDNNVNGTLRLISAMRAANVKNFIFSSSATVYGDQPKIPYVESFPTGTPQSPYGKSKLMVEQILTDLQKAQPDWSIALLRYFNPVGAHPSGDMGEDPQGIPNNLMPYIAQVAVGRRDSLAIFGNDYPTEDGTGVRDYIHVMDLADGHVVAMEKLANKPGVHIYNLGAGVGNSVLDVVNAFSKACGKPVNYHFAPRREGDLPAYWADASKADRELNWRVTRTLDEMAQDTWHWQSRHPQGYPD
UniProt P09162: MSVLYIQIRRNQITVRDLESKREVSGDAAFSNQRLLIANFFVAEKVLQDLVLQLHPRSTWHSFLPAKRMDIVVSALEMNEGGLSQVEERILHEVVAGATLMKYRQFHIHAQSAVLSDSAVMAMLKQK
UniProt P09163: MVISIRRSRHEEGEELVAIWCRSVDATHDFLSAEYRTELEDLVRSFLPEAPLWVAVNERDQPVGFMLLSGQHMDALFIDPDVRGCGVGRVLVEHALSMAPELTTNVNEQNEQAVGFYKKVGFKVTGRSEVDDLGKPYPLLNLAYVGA

Each target was assayed with CC1(C)S[C@@H]2[C@H](NC(=O)[C@H](N)c3ccccc3)C(=O)N2[C@H]1C(=O)O [ampicillin] (assay: log2 fold change of tryptic peptide abundance, ligand vs vehicle (limited proteolysis) (log2 ratio); higher = more trypsin-susceptible (destabilized)). Conditions: ligand concentration: 10 uM; sample: E. coli crude lysate.

Row | Target | log2 fold change
1 | UniProt P09029 (peptide sequence: DVFPIIADR, peptide start residue: 72) | 0.279
2 | UniProt P06959 (peptide sequence: SAMEPVWNGK, peptide start residue: 578) | -0.297
3 | UniProt P06846 (peptide sequence: VLNDDPTLNVK, peptide start residue: 21) | 0.0933
4 | UniProt P06996 (peptide sequence: AETYTGGLK, peptide start residue: 239) | 0.282
5 | UniProt P00959 (peptide sequence: DIFLLSPDAGAKPGHQVK, peptide start residue: 660) | 0.141
6 | UniProt P07395 (peptide sequence: GDLESVLDLTGK, peptide start residue: 619) | 0.26
7 | UniProt P02921 (peptide sequence: KVPPEPVHADIPVGAVSDVKA, peptide start residue: 453) | 0.29
8 | UniProt P07821 (peptide sequence: YCDYLVALR, peptide start residue: 214) | -0.198
9 | UniProt P00960 (peptide sequence: ELGPEPMAAAYVQPSR, peptide start residue: 48) | -0.535
10 | UniProt P09169 (peptide sequence: LGLMAGYQESR, peptide start residue: 148) | -0.129
11 | UniProt P06134 (peptide sequence: CLVAESER, peptide start residue: 201) | -0.307
12 | UniProt P05707 (peptide sequence: LGIKPDQVEQYYIDKVPLK, peptide start residue: 204) | 0.563
13 | UniProt P07013 (peptide sequence: VSPSGIPHCQFVLEHR, peptide start residue: 19) | 0.4
14 | UniProt P04995 (peptide sequence: IHSLFTVPK, peptide start residue: 88) | -0.295
15 | UniProt P04391 (peptide sequence: MYDGIQYR, peptide start residue: 100) | -0.252
16 | UniProt P08373 (peptide sequence: DSIFKHEYQDR, peptide start residue: 160) | -0.513
17 | UniProt P07118 (peptide sequence: RTGNMMQPQLADK, peptide start residue: 581) | -0.609
18 | UniProt P06710 (peptide sequence: MPLPEPEVPR, peptide start residue: 363) | -0.123
19 | UniProt P02929 (peptide sequence: KVQEQPKR, peptide start residue: 105) | 0.24
20 | UniProt P04993 (peptide sequence: EGPFGVAGLNER, peptide start residue: 446) | -0.263
21 | UniProt P07862 (peptide sequence: IAVLLGGTSAER, peptide start residue: 5) | 0.0665
22 | UniProt P00562 (peptide sequence: HWLYNATVGAGLPINHTVR, peptide start residue: 596) | 0.279
23 | UniProt P00803 (peptide sequence: QAAAQAAAGDSLDK, peptide start residue: 35) | 0.122
24 | UniProt P07604 (peptide sequence: SKVDMANPASCQLFGQK, peptide start residue: 100) | 0.26
25 | UniProt P09147 (peptide sequence: ACGKPVNYHFAPR, peptide start residue: 279) | 0.125
26 | UniProt P03835 (peptide sequence: SKKPELVEQELWGVLLAYNLVR, peptide start residue: 333) | -0.589
27 | UniProt P09162 (peptide sequence: QFHIHAQSAVLSDSAVMAMLK, peptide start residue: 105) | -0.347
28 | UniProt P04968 (peptide sequence: VGLFAEGVAVKR, peptide start residue: 235) | -0.496
29 | UniProt P08369 (peptide sequence: EVTTDDELR, peptide start residue: 439) | -0.336
30 | UniProt P09163 (peptide sequence: SVDATHDFLSAEYR, peptide start residue: 23) | 0.231

Random excerpt: 2 entries already listed
Row | Target | log2 fold change
3 | UniProt P06846 (peptide sequence: VLNDDPTLNVK, peptide start residue: 21) | 0.0933
22 | UniProt P00562 (peptide sequence: HWLYNATVGAGLPINHTVR, peptide start residue: 596) | 0.279
